Measurements reported in patent US20260276657A1.
Results are given in words; binding and its absence hold for the method and conditions named. Some binding calls cover weakened binding; strength is not graded here. Values belong to the binder of their own block, whether it stands above or below them.

The chains behind the UniProt entries cited, without tags or fusion partners. Where a name states a change or a piece, a line headed by the entry shows the natural chain unless it says otherwise. A line that says so, or that is headed by a name, gives the form on record, which may keep a tag or linker.
oligomeric variants of tau in human FTD sera (P10636, form named): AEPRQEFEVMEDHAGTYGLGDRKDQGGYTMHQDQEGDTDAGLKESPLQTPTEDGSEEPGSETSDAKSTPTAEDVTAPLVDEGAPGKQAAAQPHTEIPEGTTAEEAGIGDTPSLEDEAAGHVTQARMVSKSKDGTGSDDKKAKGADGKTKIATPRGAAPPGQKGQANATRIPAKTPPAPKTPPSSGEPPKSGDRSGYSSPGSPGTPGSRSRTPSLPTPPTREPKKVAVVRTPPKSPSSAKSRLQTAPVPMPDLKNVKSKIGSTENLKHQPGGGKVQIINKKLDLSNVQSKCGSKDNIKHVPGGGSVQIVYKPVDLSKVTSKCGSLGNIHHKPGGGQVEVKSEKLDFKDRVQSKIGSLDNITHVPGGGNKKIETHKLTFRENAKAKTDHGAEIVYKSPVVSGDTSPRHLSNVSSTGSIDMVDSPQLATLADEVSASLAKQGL

Experiments:
[1] = target: oligomeric variants of beta-amyloid in human FTD sera (human) (UniProt P05067); experiment: phage capture ELISA on FTD sera; scFv as capture, beta-amyloid detection phage
[2] = target: oligomeric variants of tau in human FTD sera (human) (UniProt P10636); experiment: phage capture ELISA on FTD sera; scFv as capture, tau detection phage

binding [1]: binds
B1: A4 scFv (scFv)
scFv: MAEVQLLESGGGLVQPGGSLRLSCAASGFTFSSYPMSWVRQAPGKGLEWVSAIQHTGAPTTYADSVKGRFTISRDNSKNTLYLQMNSLRAEDTAVYYCAKAFPPFDYWGQGTLVTVSSGGGGSGGGGSGGGGSTDIQMTQSPSSLSASVGDRVTITCRASQSISSYLNWYQQKPGKAPKLLIYSASSLQSGVPSRFSGSGSGTDFTLTISSLQPEDFATYYCQQRETGPKAFGQGTKVEIKRAAAHHHHHHGAAEQKLISEEDLNGAA

binding [2]: binds
B2: F9T scFv (scFv)
scFv: MAQVQLQESGGGVVQPGRSLRLSCAASGFTFSTSGMHWVRQAPGKGLEWVAFILHDGSDKYYADSVKGRFTISRDNSKNTLYLQMNSLRAEDTAIYYCAKSQRELLGAEYLQNWGQGTLVTVSSGGGGSGGGGSGGGGSQSALTQPASVSGSPGQSITISCTGTSSDVGGYKYVSWYQQHPGKAPKVMIYDVSNRPSGVSNRFSGSKSGNTASLTISGLQAEDEADYYCSSYTSSSTLVFGGGTKVTVLGAAAHHHHHHGAAEQKLISEEDLNGAA
